Data as given in US20140286952A1 (BOARD OF SUPERVISORS FOR THE UNIVERSITY OF LOUISIA SYSTEM …, published 2014).
No constants are given. Whether binding was seen depends on the method and setting. For some assays here: In cells and extracts the contact can be indirect. Some binding calls cover weakened binding; strength is not graded here. Tags and fused reporters may be left off the sequences shown.

Amino acid sequences for entries named in this document (tags omitted).
UniProt Q07157: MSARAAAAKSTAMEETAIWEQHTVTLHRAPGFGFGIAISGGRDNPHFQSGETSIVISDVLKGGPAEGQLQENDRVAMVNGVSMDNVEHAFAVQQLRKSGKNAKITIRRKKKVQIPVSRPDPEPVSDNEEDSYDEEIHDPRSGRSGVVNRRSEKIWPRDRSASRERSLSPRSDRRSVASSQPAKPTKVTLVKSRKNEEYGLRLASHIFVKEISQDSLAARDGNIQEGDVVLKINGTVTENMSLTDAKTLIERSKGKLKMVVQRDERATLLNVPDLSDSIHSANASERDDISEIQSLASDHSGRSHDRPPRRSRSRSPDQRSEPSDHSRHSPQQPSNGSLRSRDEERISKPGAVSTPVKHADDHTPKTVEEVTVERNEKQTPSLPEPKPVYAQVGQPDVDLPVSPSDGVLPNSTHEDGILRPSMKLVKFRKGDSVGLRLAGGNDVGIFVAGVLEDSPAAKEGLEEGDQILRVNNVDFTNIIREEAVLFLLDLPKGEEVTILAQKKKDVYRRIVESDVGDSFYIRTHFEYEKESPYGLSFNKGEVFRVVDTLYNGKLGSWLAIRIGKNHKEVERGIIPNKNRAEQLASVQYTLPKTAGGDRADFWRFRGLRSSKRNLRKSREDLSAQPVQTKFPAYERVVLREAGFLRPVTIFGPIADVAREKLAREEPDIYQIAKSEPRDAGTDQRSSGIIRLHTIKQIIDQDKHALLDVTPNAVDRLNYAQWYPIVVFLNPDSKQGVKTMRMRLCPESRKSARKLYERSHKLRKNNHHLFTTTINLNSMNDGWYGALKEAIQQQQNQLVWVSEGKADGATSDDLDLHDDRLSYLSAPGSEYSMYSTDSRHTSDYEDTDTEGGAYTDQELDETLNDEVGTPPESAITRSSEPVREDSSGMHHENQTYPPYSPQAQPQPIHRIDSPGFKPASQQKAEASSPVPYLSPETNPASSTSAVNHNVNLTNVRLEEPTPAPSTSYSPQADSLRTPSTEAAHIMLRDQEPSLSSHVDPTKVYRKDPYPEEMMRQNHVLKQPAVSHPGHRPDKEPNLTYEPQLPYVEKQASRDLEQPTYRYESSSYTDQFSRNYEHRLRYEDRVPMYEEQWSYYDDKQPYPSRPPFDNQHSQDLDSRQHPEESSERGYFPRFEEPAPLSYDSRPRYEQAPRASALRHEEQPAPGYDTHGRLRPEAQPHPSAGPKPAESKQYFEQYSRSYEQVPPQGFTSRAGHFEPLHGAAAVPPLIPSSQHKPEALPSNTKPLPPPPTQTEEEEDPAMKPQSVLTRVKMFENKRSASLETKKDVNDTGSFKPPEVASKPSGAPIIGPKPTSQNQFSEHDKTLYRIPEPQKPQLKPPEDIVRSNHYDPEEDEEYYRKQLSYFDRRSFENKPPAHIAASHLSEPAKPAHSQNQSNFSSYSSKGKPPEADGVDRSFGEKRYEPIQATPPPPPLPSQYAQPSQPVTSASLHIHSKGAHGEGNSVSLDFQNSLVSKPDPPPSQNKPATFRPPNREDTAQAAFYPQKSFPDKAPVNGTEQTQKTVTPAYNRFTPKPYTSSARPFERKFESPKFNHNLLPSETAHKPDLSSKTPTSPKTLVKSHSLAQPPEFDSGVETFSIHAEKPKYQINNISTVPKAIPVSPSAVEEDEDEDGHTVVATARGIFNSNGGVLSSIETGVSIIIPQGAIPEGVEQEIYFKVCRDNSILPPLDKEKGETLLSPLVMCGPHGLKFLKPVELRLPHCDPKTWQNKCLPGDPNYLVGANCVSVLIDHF

Experiments:
[1] = biological target: T1, GST-CTR-Cwt fusion protein (GST fused to the intracellular C-terminal domain of CTRwt, aa 441-476) (human) (UniProt P30988); assay: overlay (far Western) assay: lysates on PVDF membrane incubated with GST-CTRwt fusion protein, GST immunoblot
T1 sequence (looked up): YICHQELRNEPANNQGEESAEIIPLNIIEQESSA

[2] = biological target: zonula occludens-1 (ZO-1), endogenous protein of prostate cancer cells and tumor specimens (UniProt Q07157); assay: GST pull-down from PC-3 cell lysates, ZO-1 immunoblot (told again in Example 22)
[3] = biological target: zonula occludens-1 (ZO-1), endogenous protein of prostate cancer cells and tumor specimens (UniProt Q07157); assay: GST pull-down from PC-3 cell lysates, ZO-1 immunoblot (legend of FIG. 3A)
[4] = biological target: zonula occludens-1 (ZO-1), endogenous protein of prostate cancer cells and tumor specimens (UniProt Q07157); assay: GST pull-down from PC-3 cell lysates, ZO-1 immunoblot
[5] = biological target: ZO-1wt-YFP (wild-type ZO-1 fused to yellow fluorescent protein, ZO-1wt-EYFP-N1) (UniProt Q07157); assay: acceptor photobleaching FRET microscopy in live PC-31 cells

ZO-1wt-MYC (wild-type ZO-1, Myc tagged at the C-terminal) (from UniProt Q07157 1-1748)
binding [1]: binds

YICHQELRNEPANNQGEESAEIIPLNIIEQESSA (peptide, human, UniProt P30988 441-474, looked up, not shown: a dimerising Fc or GST) [GST-CTR-Cwt fusion protein (GST fused to the intracellular C-terminal domain of CTRwt, aa 441-476)]
binding [2]: binds | binding [3]: binds | binding [4]: binds

B1: CTRwt-CFP (wild-type calcitonin receptor fused to cyan fluorescent protein, CTRwt-ECFP-N1) (receptor, human, UniProt P30988 25-474, looked up, not shown: large carriers)
chain: AFSNQTYPTIEPKPFLYVVGRKKMMDAQYKCYDRMQQLPAYQGEGPYCNRTWDGWLCWDDTPAGVLSYQFCPDYFPDFDPSEKVTKYCDEKGVWFKHPENNRTWSNYTMCNAFTPEKLKNAYVLYYLAIVGHSLSIFTLVISLGIFVFFRSLGCQRVTLHKNMFLTYILNSMIIIIHLVEVVPNGELVRRDPVSCKILHFFHQYMMACNYFWMLCEGIYLHTLIVVAVFTEKQRLRWYYLLGWGFPLVPTTIHAITRAVYFNDNCWLSVETHLLYIIHGPVMAALVVNFFFLLNIVRVLVTKMRETHEAESHMYLKAVKATMILVPLLGIQFVVFPWRPSNKMLGKIYDYVMHSLIHFQGFFVATIYCFCNNEVQTTVKRQWAQFKIQWNQRWGRRPSNRSARAAAAAAEAGDIPIYICHQELRNEPANNQGEESAEIIPLNIIEQESSA
binding [5]: binds
